Assay results reported in US7737125B2, “LNA antagonists targeting the androgen receptor” (Enzon Pharamaceuticals, Inc., priority 2007, dated 2010).
Some entries share one result that the patent states for a list of compounds. Strand notation (5' to 3'): a small letter for the sugar, then the base; units joined by * are phosphorothioate-linked, units joined directly phosphodiester-linked; [ ] holds rarer units or linkages, { } end groups; capitals alone tell only the bases. l = locked nucleic acid (LNA); [5mC] = 5-methylcytosine; d = 2'-deoxy (DNA)

Test system: mouse androgen receptor mRNA
Assay: In vivo knock-down of AR mRNA expression in mouse liver (QPCR)
Conditions: nude mice, 100 mg/kg i.v. q3dx4, liver 24 h after last dosing, normalised to mouse GAPDH, relative to saline treated animals
Procedure: Nude mice were dosed i.v. q3dx4 with 100 mg/kg oligonucleotide (group size of 5 mice). The antisense oligonucleotides (SEQ ID:48, SEQ ID:51, SEQ ID:58, SEQ ID:63, SEQ ID:77) were dissolved in phosphate buffered saline. Animals were sacrificed 24 h after last dosing and liver tissue was sampled and stored in RNA later until RNA extraction and QPCR analysis. Total RNA was extracted and AR mRNA expression in liver samples was measured by QPCR as described in Example 7 using a mouse AR QPCR assay (cat. Mm01238475_m1, Applied Biosystems). Results were normalised to mouse GAPDH (cat. no. 4352339E, Applied Biosystems) and knock-own was quantitated relative to saline treated controls. The data in Table 4 are presented as percentage down-regulation relative to saline treated animals.

5′-AsCsCsasasgstststscststscsAsGsC-3′ (antisense lA*l[5mC]*l[5mC]*dA*dA*dG*dT*dT*dT*dC*dT*dT*dC*lA*lG*l[5mC]) [SEQ ID NO: 58, LNA gapmer antisense oligonucleotide]
Liver (% KD) of AR mRNA expression: greater than 90%

5′-CsCsCsasasgsgscsascstsgscsAsGsA-3′ (antisense l[5mC]*l[5mC]*l[5mC]*dA*dA*dG*dG*dC*dA*dC*dT*dG*dC*lA*lG*lA) [SEQ ID NO: 77, LNA gapmer antisense oligonucleotide]
Liver (% KD) of AR mRNA expression: greater than 90%
